Test results from patent US20210261642A1, “SOLUBILITY OF GLP-1 PEPTIDE” (Novo Nordisk A/S, priority 2017, published 2021).
The source gives many values for each of these; only a part stands here.

Assay: Assay (I): Determination of Solubility (96-well plate, pH 3.0-11.0, organic solvent 0-70% w/w, UV absorption at 280 nm)
Assay type: physicochemical
Experimental: Assay (I): Determination of Solubility
96-Well Plate Preparation
96-well plates containing target peptide in a solid form were prepared in one of two ways:
Method 1 (evaporation): Addition of 100 μl stock solution of said peptide at a concentration of 4-6 mg/ml to each well of a 96-well half area plate (150 μl well size). Subsequently the solvent was evaporated by applying a vacuum until the solvent was completely removed.
Method 2 (precipitation): Addition of a certain volume of a stock solution of said peptide containing to each well of a 96-well half area plate followed by the addition of a certain volume of concentrated phosphoric acid to obtain a pH of 4.6 followed by addition of a certain volume of ethanol resulting in a final ethanol concentration of 20% v/v. Subsequently the plate was stored at 4° C. for 1 h and then centrifuged at 4,000 rpm for 20 min. Finally the supernatant was removed. The concentration of the stock solution was chosen in a way that the final amount of peptide after supernatant removal was >0.4 mg per well.
In both cases the stock solution was prepared by adding de-ionized water to a certain amount of powder of said peptide followed by a stepwise addition of small amounts of a concentrated sodium hydroxide solution until said peptide was completely in solution.
To determine solubility of a target peptide at different pH and organic solvent concentrations, two different buffer systems were used in independent experiments to cover the whole range from pH 3.0 to pH 11.0. Buffer system 1 covers pH 3.0-7.5 and buffer system 2 covers pH 7.5-11.0. For each buffer system 96 different solvent compositions were premixed in the following way: • 1. A low pH buffer (adjusted to either pH 3.0 or pH 7.5) and a high pH buffer (adjusted to either pH 7.5 or pH 11.0) were mixed at 8 different ratios to obtain values between pH 3.0 and pH 7.5 or pH 7.5 and pH 11.0, respectively. The total volume after mixing was 300 μl. • 2. 12 different amounts of organic solvent were then added to these buffers to obtain organic solvent (e.g. ethanol) concentrations between 0 and 70% w/w. • 3. Water was then added to obtain a total weight of 1.0 g of solvent in each well.
After preparing the 96 different solvent systems, 100 μl of each system was transferred to the 96-well plate containing the solid form of the target peptide (prepared as described in the section “96-well plate preparation”). The plate was then stored at a given temperature (between 5° C. and 70° C.) for a given time on a rotating shaker set to 400 rpm. At regular time intervals the plate was centrifuged (4,000 rpm for 10 min) and a 10 μl sample was taken from each well. The samples were then analysed by UV absorption at 280 nm for peptide quantification. Peptide concentration results are given as UV absorption at 280 nm of the sample subtracted UV absorption at 280 nm of a well comprising 10 μl water.
The buffers used were as follows: • Buffer system 1 (for the pH range from pH 3.0-7.5)
• Buffer system 2 (for the pH ranae from pH 7.5-11.0)
Solubility of liraglutide was determined using Assay (I) described herein. Liraglutide was prepared using Method 1 (evaporation) or Method 2 (precipitation) as described in subsection “96-well plate preparation”.

[1] = MeCN 44.5% w/w, pH 6.9, RT, Method 1
[2] = MeCN 44.5% w/w, pH 7.5, 5° C., Method 1
[3] = MeCN 44.5% w/w, pH 7.5, 70° C., Method 1
[4] = MeCN 44.5% w/w, pH 7.5, RT, Method 1
[5] = MeCN 44.5% w/w, pH 8.0, 70° C., Method 1 (evaporation)
[6] = MeCN 44.5% w/w, pH 8.0, RT, Method 1
[7] = MeCN 44.5% w/w, pH 8.5, 70° C., Method 1 (evaporation)
[8] = MeCN 44.5% w/w, pH 8.5, RT, Method 1
[9] = MeCN 44.5% w/w, pH 9.0, 70° C., Method 1 (evaporation)
[10] = MeCN 44.5% w/w, pH 9.0, RT, Method 1
[11] = MeCN 44.5% w/w, pH 9.5, 70° C., Method 1 (evaporation)
[12] = MeCN 44.5% w/w, pH 9.5, RT, Method 1
[13] = MeCN 44.5% w/w, pH 10.0, 70° C., Method 1 (evaporation)
[14] = MeCN 44.5% w/w, pH 10.0, RT, Method 1
[15] = MeCN 44.5% w/w, pH 10.5, 70° C., Method 1 (evaporation)
[16] = MeCN 44.5% w/w, pH 10.5, RT, Method 1
[17] = MeCN 44.5% w/w, pH 11.0, 70° C., Method 1 (evaporation)
[18] = MeCN 44.5% w/w, pH 11.0, RT, Method 1
[19] = MeCN 50.9% w/w, pH 3.0, 5° C., Method 1

Compound: CCCCCCCCCCCCCCCC(=O)N[C@@H](CCC(=O)NCCCC[C@H](NC(=O)[C@H](C)NC(=O)[C@H](C)NC(=O)[C@H](CCC(N)=O)NC(=O)CNC(=O)[C@H](CCC(=O)O)NC(=O)[C@H](CC(C)C)NC(=O)[C@H](Cc1ccc(O)cc1)NC(=O)[C@H](CO)NC(=O)[C@H](CO)NC(=O)[C@@H](NC(=O)[C@H](CC(=O)O)NC(=O)[C@H](CO)NC(=O)[C@@H](NC(=O)[C@H](Cc1ccccc1)NC(=O)[C@@H](NC(=O)CNC(=O)[C@H](CCC(=O)O)NC(=O)[C@H](C)NC(=O)[C@@H](N)Cc1cnc[nH]1)[C@@H](C)O)[C@@H](C)O)C(C)C)C(=O)N[C@@H](CCC(=O)O)C(=O)N[C@@H](Cc1ccccc1)C(=O)N[C@H](C(=O)N[C@@H](C)C(=O)N[C@@H](Cc1c[nH]c2ccccc12)C(=O)N[C@@H](CC(C)C)C(=O)N[C@H](C(=O)N[C@@H](CCCNC(=N)N)C(=O)NCC(=O)N[C@@H](CCCNC(=N)N)C(=O)NCC(=O)O)C(C)C)[C@@H](C)CC)C(=O)O [liraglutide, Arg34,Lys26-(N-epsilon-(gamma-L-glutamyl(N-alfa-hexadecanoyl)))-GLP-1(7-37)]
- Peptide concentration after 180 min (MeCN 44.5% w/w, pH 6.9, 70° C., Method 1): >4.0 mg/mL
- Peptide concentration after 5 min [1]: 0.9 mg/mL
- Peptide concentration after 180 min [1]: 1.9 mg/mL
- Peptide concentration after 24 h [1]: 1.3 mg/mL
- Peptide concentration after 5 min [2]: 1.7 mg/mL
- Peptide concentration after 180 min [2]: >4.0 mg/mL
- Peptide concentration after 24 h [2]: >4.0 mg/mL
- Peptide concentration after 5 min [3]: >4.0 mg/mL
- Peptide concentration after 180 min [3]: >4.0 mg/mL
- Peptide concentration after 5 min [4]: 1.3 mg/mL
- Peptide concentration after 180 min [4]: >4.0 mg/mL
- Peptide concentration after 24 h [4]: >4.0 mg/mL
- Peptide concentration after 5 min [5]: 3.5 mg/mL
- Peptide concentration after 180 min [5]: >4.0 mg/mL
- Peptide concentration after 5 min [6]: 1.0 mg/mL
- Peptide concentration after 180 min [6]: >4.0 mg/mL
- Peptide concentration after 24 h [6]: >4.0 mg/mL
- Peptide concentration after 5 min [7]: 3.6 mg/mL
- Peptide concentration after 180 min [7]: >4.0 mg/mL
- Peptide concentration after 5 min [8]: 1.1 mg/mL
- Peptide concentration after 180 min [8]: 3.9 mg/mL
- Peptide concentration after 24 h [8]: >4.0 mg/mL
- Peptide concentration after 5 min [9]: 2.2 mg/mL
- Peptide concentration after 180 min [9]: >4.0 mg/mL
- Peptide concentration after 5 min [10]: 0.8 mg/mL
- Peptide concentration after 180 min [10]: 3.5 mg/mL
- Peptide concentration after 24 h [10]: >4.0 mg/mL
- Peptide concentration after 5 min [11]: >4.0 mg/mL
- Peptide concentration after 180 min [11]: >4.0 mg/mL
- Peptide concentration after 5 min [12]: 1.0 mg/mL
- Peptide concentration after 180 min [12]: >4.0 mg/mL
- Peptide concentration after 24 h [12]: >4.0 mg/mL
- Peptide concentration after 5 min [13]: >4.0 mg/mL
- Peptide concentration after 180 min [13]: >4.0 mg/mL
- Peptide concentration after 5 min [14]: 2.0 mg/mL
- Peptide concentration after 180 min [14]: >4.0 mg/mL
- Peptide concentration after 24 h [14]: 3.7 mg/mL
- Peptide concentration after 5 min [15]: >4.0 mg/mL
- Peptide concentration after 180 min [15]: >4.0 mg/mL
- Peptide concentration after 5 min [16]: 1.1 mg/mL
- Peptide concentration after 180 min [16]: >4.0 mg/mL
- Peptide concentration after 24 h [16]: 4.0 mg/mL
- Peptide concentration after 5 min [17]: 3.9 mg/mL
- Peptide concentration after 180 min [17]: >4.0 mg/mL
- Peptide concentration after 5 min [18]: 1.3 mg/mL
- Peptide concentration after 180 min [18]: >4.0 mg/mL
- Peptide concentration after 24 h [18]: >4.0 mg/mL
- Peptide concentration after 5 min [19]: 0.8 mg/mL
- Peptide concentration after 180 min [19]: 1.6 mg/mL
- Peptide concentration after 24 h [19]: 1.7 mg/mL
